Measured values published in US5767254A, “Method for making amino acid glycosides and glycopeptides” (The Arizona Board of Regents on Behalf of the University of …, priority 1995, dated 1998).
Not every detail of the peptide structures is certain; ends, links or a residue may be inferred. Where a SMILES comes first, the peptide text is derived from it. Bridges are numbered along the chain shown (N, C = ends). [ ]: non-standard residue; d: D form. The star is where a group is joined. βGlc = OC[C@H]1O[C@@H](*)[C@H](O)[C@@H](O)[C@@H]1O

By UniProt entry, the sequences of proteins in these tests, tags left out. Where a name states a change or a piece, a line headed by the entry shows the natural chain unless it says otherwise.
UniProt P33535, whole entry: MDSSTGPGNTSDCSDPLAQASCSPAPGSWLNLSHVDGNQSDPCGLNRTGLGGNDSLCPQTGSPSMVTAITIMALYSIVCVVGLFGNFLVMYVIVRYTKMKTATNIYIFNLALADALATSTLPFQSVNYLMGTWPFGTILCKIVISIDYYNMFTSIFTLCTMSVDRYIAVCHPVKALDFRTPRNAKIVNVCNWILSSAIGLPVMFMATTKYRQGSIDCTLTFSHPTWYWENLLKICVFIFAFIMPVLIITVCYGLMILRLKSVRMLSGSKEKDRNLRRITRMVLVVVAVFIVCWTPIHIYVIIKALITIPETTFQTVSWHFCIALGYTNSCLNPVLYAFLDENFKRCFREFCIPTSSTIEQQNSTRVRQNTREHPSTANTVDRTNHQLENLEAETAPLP
UniProt P33533, whole entry: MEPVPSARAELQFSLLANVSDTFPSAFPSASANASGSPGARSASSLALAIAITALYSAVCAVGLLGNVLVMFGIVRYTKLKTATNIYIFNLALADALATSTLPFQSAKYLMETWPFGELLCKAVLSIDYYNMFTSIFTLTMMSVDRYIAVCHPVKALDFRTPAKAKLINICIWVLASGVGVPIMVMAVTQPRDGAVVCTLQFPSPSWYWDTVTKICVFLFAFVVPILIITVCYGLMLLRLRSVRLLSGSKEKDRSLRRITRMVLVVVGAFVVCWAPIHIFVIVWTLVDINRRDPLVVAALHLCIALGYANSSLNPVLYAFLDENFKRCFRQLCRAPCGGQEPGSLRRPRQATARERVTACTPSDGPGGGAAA

Experiments:
[1] = biological target: T1, μ-receptor (Rattus norvegicus, UniProt P33535); assay: whole rat brain radioligand binding assay, μ-receptor
T1 construct: from tissue; host or cells: whole rat brain

[2] = biological target: T2, δ-receptor (Rattus norvegicus, UniProt P33533); assay: whole rat brain radioligand binding assay, δ-receptor
T2 construct: from tissue; host or cells: whole rat brain

[3] = test system: MVD; assay: MVD opioid assay
[4] = test system: GPI; assay: GPI opioid assay

Compound: NC(=O)CNC(=O)[C@H](CO[C@@H]1O[C@H](CO)[C@@H](O)[C@H](O)[C@H]1O)NC(=O)[C@H]1CSSC[C@@H](NC(=O)[C@@H](N)Cc2ccc(O)cc2)C(=O)NCC(=O)N[C@@H](Cc2ccccc2)C(=O)N1 [Compound 38, H2 N-Tyr-D-Cys-Gly-Phe-D-Cys-Ser(O-β-D-Glc)-Gly-CONH2] (H-Y[dC]GF[dC]S(βGlc)G-NH2; disulfide 2-5)
- IC50 [1]: 53 nM
- IC50 [2]: 26 nM
- activity in MVD opioid assay [3]: active
- activity in GPI opioid assay [4]: active
